According to PMC10279913:
These are yes or no findings as the source states them, for the method shown. In cells and extracts the contact can be indirect. A yes stands for co-enrichment or nearness to the bait. Other partners may have been found. Where a sequence is shown, tags or fusion partners need not be part of it.

T1: HA::AdipoR2 (human) (UniProt Q86V24)
T1 sequence: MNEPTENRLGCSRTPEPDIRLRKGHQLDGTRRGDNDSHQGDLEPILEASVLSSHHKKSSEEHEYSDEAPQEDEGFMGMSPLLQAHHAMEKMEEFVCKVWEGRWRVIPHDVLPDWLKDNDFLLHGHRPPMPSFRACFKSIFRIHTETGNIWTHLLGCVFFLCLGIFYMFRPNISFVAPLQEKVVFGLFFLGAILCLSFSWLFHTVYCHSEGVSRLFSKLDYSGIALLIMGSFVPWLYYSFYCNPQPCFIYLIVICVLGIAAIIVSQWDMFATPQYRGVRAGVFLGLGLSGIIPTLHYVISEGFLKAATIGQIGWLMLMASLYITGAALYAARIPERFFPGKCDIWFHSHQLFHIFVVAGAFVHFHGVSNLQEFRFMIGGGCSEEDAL


Target: T1, HA::AdipoR2 (human)
Test: affinity purification with mass spectrometry; anti-HA immunoprecipitation (rabbit mAb C29F4 + protein A-agarose, 3 h) from lysates of HEK293 cells stably expressing HA-tagged AdipoR2; 25 mM Tris pH 7.5, 300 mM NaCl, 0.1% NP-40; eluted with 0.2 M glycine pH 2.5; 4 IPs; control: cells without HA-tagged protein

Binder	binding
Inositol monophosphatase 2 (enzyme, UniProt O14732 1-288) MKPSGEDQAALAAGPWEECFQAAVQLALRAGQIIRKALTEEKRVSTKTSAADLVTETDHLVEDLIISELRERFPSHRFIAEEAAASGAKCVLTHSPTWIIDPIDGTCNFVHRFPTVAVSIGFAVRQELEFGVIYHCTEERLYTGRRGRGAFCNGQRLRVSGETDLSKALVLTEIGPKRDPATLKLFLSNMERLLHAKAHGVRVIGSSTLALCHLASGAADAYYQFGLHCWDLAAATVIIREAGGIVIDTSGGPLDLMACRVVAASTREMAMLIAQALQTINYGRDDEK	binds
Aspartate–tRNA ligase, cytoplasmic (enzyme, UniProt P14868 1-501) MPSASASRKSQEKPREIMDAAEDYAKERYGISSMIQSQEKPDRVLVRVRDLTIQKADEVVWVRARVHTSRAKGKQCFLVLRQQQFNVQALVAVGDHASKQMVKFAANINKESIVDVEGVVRKVNQKIGSCTQQDVELHVQKIYVISLAEPRLPLQLDDAVRPEAEGEEEGRATVNQDTRLDNRVIDLRTSTSQAVFRLQSGICHLFRETLINKGFVEIQTPKIISAASEGGANVFTVSYFKNNAYLAQSPQLYKQMCICADFEKVFSIGPVFRAEDSNTHRHLTEFVGLDIEMAFNYHYHEVMEEIADTMVQIFKGLQERFQTEIQTVNKQFPCEPFKFLEPTLRLEYCEALAMLREAGVEMGDEDDLSTPNEKLLGHLVKEKYDTDFYILDKYPLAVRPFYTMPDPRNPKQSNSYDMFMRGEEILSGAQRIHDPQLLTERALHHGIDLEKIKAYIDSFRFGAPPHAGGGIGLERVTMLFLGLHNVRQTSMFPRDPKRLTP	binds
Upregulated during skeletal muscle growth protein 5 (protein, UniProt Q96IX5 1-58) MAGPESDAQYQFTGIKKYFNSYTLTGRMNCVLATYGSIALIVLYFKLRSKKTPAVKAT	binds
Signal recognition particle 9-kDa protein (protein, UniProt P49458 1-86) MPQYQTWEEFSRAAEKLYLADPMKARVVLKYRHSDGNLCVKVTDDLVCLVYKTDQAQDVKKIEKFHSQLMRLMVAKEARNVTMETE	binds
Serine/arginine-rich splicing factor 3 (protein, UniProt P84103 1-164) MHRDSCPLDCKVYVGNLGNNGNKTELERAFGYYGPLRSVWVARNPPGFAFVEFEDPRDAADAVRELDGRTLCGCRVRVELSNGEKRSRNRGPPPSWGRRPRDDYRRRSPPPRRRSPRRRSFSRSRSRSLSRDRRRERSLSRERNHKPSRSFSRSRSRSRSNERK	binds
Kallikrein-10 (protein, UniProt O43240 31-276) AEAALLPQNDTRLDPEAYGSPCARGSQPWQVSLFNGLSFHCAGVLVDQSWVLTAAHCGNKPLWARVGDDHLLLLQGEQLRRTTRSVVHPKYHQGSGPILPRRTDEHDLMLLKLARPVVLGPRVRALQLPYRCAQPGDQCQVAGWGTTAARRVKYNKGLTCSSITILSPKECEVFYPGVVTNNMICAGLDRGQDPCQSDSGGPLVCDETLQGILSWGVYPCGSAQHPAVYTQICKYMSWINKVIRSN	binds
Probable histidine–tRNA ligase, mitochondrial (enzyme, UniProt P49590 34-506) QSQVAEAVLTSQLKAHQEKPNFIIKTPKGTRDLSPQHMVVREKILDLVISCFKRHGAKGMDTPAFELKETLTEKYGEDSGLMYDLKDQGGELLSLRYDLTVPFARYLAMNKVKKMKRYHVGKVWRRESPTIVQGRYREFCQCDFDIAGQFDPMIPDAECLKIMCEILSGLQLGDFLIKVNDRRIVDGMFAVCGVPESKFRAICSSIDKLDKMAWKDVRHEMVVKKGLAPEVADRIGDYVQCHGGVSLVEQMFQDPRLSQNKQALEGLGDLKLLFEYLTLFGIADKISFDLSLARGLDYYTGVIYEAVLLQTPTQAGEEPLNVGSVAAGGRYDGLVGMFDPKGHKVPCVGLSIGVERIFYIVEQRMKTKGEKVRTTETQVFVATPQKNFLQERLKLIAELWDSGIKAEMLYKNNPKLLTQLHYCESTGIPLVVIIGEQELKEGVIKIRSVASREEVAIKRENFVAEIQKRLSES	binds
Dolichyl-diphosphooligosaccharide–protein glycosyltransferase subunit 1 (protein, UniProt P04843 24-607) ASSEAPPLINEDVKRTVDLSSHLAKVTAEVVLAHLGGGSTSRATSFLLALEPELEARLAHLGVQVKGEDEEENNLEVRETKIKGKSGRFFTVKLPVALDPGAKISVIVETVYTHVLHPYPTQITQSEKQFVVFEGNHYFYSPYPTKTQTMRVKLASRNVESYTKLGNPTRSEDLLDYGPFRDVPAYSQDTFKVHYENNSPFLTITSMTRVIEVSHWGNIAVEENVDLKHTGAVLKGPFSRYDYQRQPDSGISSIRSFKTILPAAAQDVYYRDEIGNVSTSHLLILDDSVEMEIRPRFPLFGGWKTHYIVGYNLPSYEYLYNLGDQYALKMRFVDHVFDEQVIDSLTVKIILPEGAKNIEIDSPYEISRAPDELHYTYLDTFGRPVIVAYKKNLVEQHIQDIVVHYTFNKVLMLQEPLLVVAAFYILFFTVIIYVRLDFSITKDPAAEARMKVACITEQVLTLVNKRIGLYRHFDETVNRYKQSRDISTLNSGKKSLETEHKALTSEIALLQSRLKTEGSDLCDRVSEMQKLDAQVKELVLKSAVEAERLVAGKLKKDTYIENEKLISGKRQELVTKIDHILDAL	binds

Second part, the binder after the results:

binding	Binder
binds	Serine hydroxymethyltransferase, mitochondrial (enzyme, UniProt P34897 30-504) NAAQTQTGEANRGWTGQESLSDSDPEMWELLQREKDRQCRGLELIASENFCSRAALEALGSCLNNKYSEGYPGKRYYGGAEVVDEIELLCQRRALEAFDLDPAQWGVNVQPYSGSPANLAVYTALLQPHDRIMGLDLPDGGHLTHGYMSDVKRISATSIFFESMPYKLNPKTGLIDYNQLALTARLFRPRLIIAGTSAYARLIDYARMREVCDEVKAHLLADMAHISGLVAAKVIPSPFKHADIVTTTTHKTLRGARSGLIFYRKGVKAVDPKTGREIPYTFEDRINFAVFPSLQGGPHNHAIAAVAVALKQACTPMFREYSLQVLKNARAMADALLERGYSLVSGGTDNHLVLVDLRPKGLDGARAERVLELVSITANKNTCPGDRSAITPGGLRLGAPALTSRQFREDDFRRVVDFIDEGVNIGLEVKSKTAKLQDFKSFLLKDSETSQRLANLRQRVEQFARAFPMPGFDEH
binds	Very-long-chain (3R)-3-hydroxyacyl-CoA dehydratase 3 (enzyme, UniProt Q9P035 1-362) MENQVLTPHVYWAQRHRELYLRVELSDVQNPAISITENVLHFKAQGHGAKGDNVYEFHLEFLDLVKPEPVYKLTQRQVNITVQKKVSQWWERLTKQEKRPLFLAPDFDRWLDESDAEMELRAKEEERLNKLRLESEGSPETLTNLRKGYLFMYNLVQFLGFSWIFVNLTVRFCILGKESFYDTFHTVADMMYFCQMLAVVETINAAIGVTTSPVLPSLIQLLGRNFILFIIFGTMEEMQNKAVVFFVFYLWSAIEIFRYSFYMLTCIDMDWKVLTWLRYTLWIPLYPLGCLAEAVSVIQSIPIFNETGRFSFTLPYPVKIKVRFSFFLQIYLIMIFLGLYINFRHLYKQRRRRYGQKKKKIH
binds	Gamma-glutamyltransferase 7 (protein, UniProt Q9UJ14 1-662) MAAENEASQESALGAYSPVDYMSITSFPRLPEDEPAPAAPLRGRKDEDAFLGDPDTDPDSFLKSARLQRLPSSSSEMGSQDGSPLRETRKDPFSAAAAECSCRQDGLTVIVTACLTFATGVTVALVMQIYFGDPQIFQQGAVVTDAARCTSLGIEVLSKQGSSVDAAVAAALCLGIVAPHSSGLGGGGVMLVHDIRRNESHLIDFRESAPGALREETLQRSWETKPGLLVGVPGMVKGLHEAHQLYGRLPWSQVLAFAAAVAQDGFNVTHDLARALAEQLPPNMSERFRETFLPSGRPPLPGSLLHRPDLAEVLDVLGTSGPAAFYAGGNLTLEMVAEAQHAGGVITEEDFSNYSALVEKPVCGVYRGHLVLSPPPPHTGPALISALNILEGFNLTSLVSREQALHWVAETLKIALALASRLGDPVYDSTITESMDDMLSKVEAAYLRGHINDSQAAPAPLLPVYELDGAPTAAQVLIMGPDDFIVAMVSSLNQPFGSGLITPSGILLNSQMLDFSWPNRTANHSAPSLENSVQPGKRPLSFLLPTVVRPAEGLCGTYLALGANGAARGLSGLTQVLLNVLTLNRNLSDSLARGRLHPDLQSNLLQVDSEFTEEEIEFLEARGHHVEKVDVLSWVHGSRRTNNFIIAVKDPRSPDAAGATIL
binds	Short-chain dehydrogenase/reductase family 9C member 7 (protein, UniProt Q8NEX9 1-313) MAALTDLSFMYRWFKNCNLVGNLSEKYVFITGCDSGFGNLLAKQLVDRGMQVLAACFTEEGSQKLQRDTSYRLQTTLLDVTKSESIKAAAQWVRDKVGEQGLWALVNNAGVGLPSGPNEWLTKDDFVKVINVNLVGLIEVTLHMLPMVKRARGRVVNMSSSGGRVAVIGGGYCVSKFGVEAFSDSIRRELYYFGVKVCIIEPGNYRTAILGKENLESRMRKLWERLPQETRDSYGEDYFRIYTDKLKNIMQVAEPRVRDVINSMEHAIVSRSPRIRYNPGLDAKLLYIPLAKLPTPVTDFILSRYLPRPADSV
binds	Prostaglandin E synthase 3 (protein, UniProt Q15185 1-160) MQPASAKWYDRRDYVFIEFCVEDSKDVNVNFEKSKLTFSCLGGSDNFKHLNEIDLFHCIDPNDSKHKRTDRSILCCLRKGESGQSWPRLTKERAKLNWLSVDFNNWKDWEDDSDEDMSNFDRFSEMMNNMGGDEDVDLPEVDGADDDSQDSDDEKMPDLE
binds	Phospholipase B-like 1 (protein, UniProt Q6P4A8 39-553) GVYYATAYWMPAEKTVQVKNVMDKNGDAYGFYNNSVKTTGWGILEIRAGYGSQTLSNEIIMFVAGFLEGYLTAPHMNDHYTNLYPQLITKPSIMDKVQDFMEKQDKWTRKNIKEYKTDSFWRHTGYVMAQIDGLYVGAKKRAILEGTKPMTLFQIQFLNSVGDLLDLIPSLSPTKNGSLKVFKRWDMGHCSALIKVLPGFENILFAHSSWYTYAAMLRIYKHWDFNVIDKDTSSSRLSFSSYPGFLESLDDFYILSSGLILLQTTNSVFNKTLLKQVIPETLLSWQRVRVANMMADSGKRWADIFSKYNSGTYNNQYMVLDLKKVKLNHSLDKGTLYIVEQIPTYVEYSEQTDVLRKGYWPSYNVPFHEKIYNWSGYPLLVQKLGLDYSYDLAPRAKIFRRDQGKVTDTASMKYIMRYNNYKKDPYSRGDPCNTICCREDLNSPNPSPGGCYDTKVADIYLASQYTSYAISGPTVQGGLPVFRWDRFNKTLHQGMPEVYNFDFITMKPILKLDIK
